Source: US10588946B2, “Peptide for promoting bone formation or inhibiting bone resorption and use thereof” (SEOUL NATIONAL UNIVERSITY R&DB FOUNDATION, priority 2015, dated 2020)
Results are given in words; binding and its absence hold for the method and conditions named. In cells and extracts the contact can be indirect. Some results given as binding are weak or reduced against the parent protein; the word gives no strength.

Protein sequences, listed by entry. Tags and fused reporters are not part of them.
UniProt P05556: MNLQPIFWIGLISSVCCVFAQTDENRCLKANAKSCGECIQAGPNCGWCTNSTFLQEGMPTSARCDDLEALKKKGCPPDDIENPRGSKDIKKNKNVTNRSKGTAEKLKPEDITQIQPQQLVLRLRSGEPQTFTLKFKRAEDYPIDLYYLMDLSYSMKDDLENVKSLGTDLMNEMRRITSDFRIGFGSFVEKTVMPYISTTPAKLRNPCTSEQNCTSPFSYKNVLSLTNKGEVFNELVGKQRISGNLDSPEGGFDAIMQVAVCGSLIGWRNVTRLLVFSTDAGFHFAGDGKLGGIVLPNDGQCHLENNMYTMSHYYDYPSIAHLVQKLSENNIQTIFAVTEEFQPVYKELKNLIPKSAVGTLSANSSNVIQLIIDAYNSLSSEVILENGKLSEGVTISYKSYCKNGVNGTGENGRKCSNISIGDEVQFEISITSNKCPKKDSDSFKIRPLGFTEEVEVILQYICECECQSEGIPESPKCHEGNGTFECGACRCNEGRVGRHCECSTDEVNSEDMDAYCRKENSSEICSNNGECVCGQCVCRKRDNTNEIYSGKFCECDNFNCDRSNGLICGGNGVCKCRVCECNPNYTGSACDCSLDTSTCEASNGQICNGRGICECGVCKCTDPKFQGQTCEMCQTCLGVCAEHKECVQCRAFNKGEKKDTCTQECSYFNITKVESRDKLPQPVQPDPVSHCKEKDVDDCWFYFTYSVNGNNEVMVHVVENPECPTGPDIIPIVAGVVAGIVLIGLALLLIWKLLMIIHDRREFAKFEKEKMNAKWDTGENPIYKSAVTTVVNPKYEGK

Target: β1 integrin (Homo sapiens, UniProt P05556)
Assay: pulldown with streptavidin beads from human osteogenic cells or HOS cells cultured 3 h on biotinylated VnP-16-coated dishes, immunoblot for β1 integrin

B1: biotinylated VnP-16 peptide (peptide)
peptide: RVYFFKGKQYWE
modifications: biotin conjugated (position not given); C-terminal amide
binding: binds
